Measured values taken from PubChem BioAssay AID493014 (National Center for Advancing Translational Sciences (NCATS), 2011).
The other results are listed elsewhere or left out. The main result of the screen is listed elsewhere. These columns were measured beside it and carry no call. The list favours compounds with an active or inconclusive main result. The note in brackets gives the kind of curve behind each potency; many fits are weak.

Test: qHTS Assay to Find Inhibitors of Chronic Active B-Cell Receptor Signaling
Settings: ABC-DLBCL IkBa-CBG/CBR reporter, luminescence ratio (green luciferase fused to IkBa over red control in TMD8 lymphoma cells), 4 h
Method in brief: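 Compounds up to 46 uM were incubated four hours with TMD8 cells whose green CBG68 luciferase is fused to IkappaBalpha; red CBR luminescence normalised the signal, and concentration-effect curves were fitted to fusion, red and ratio data.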

[1] = measured here: IkBa-CBG green luminescence
[2] = measured here: CBR red luminescence, cell number

COc1cc(/C=C/C(=O)OCC(=O)NCc2ccco2)ccc1O
AC50 [1]: 32.6 µM [falling, partial curve, poor fit]

CC(=O)Nc1cccc(NC(=O)CSc2ncc(-c3ccccc3)[nH]2)c1
AC50 [2]: 11.2 µM [rising, partial curve]

CCOc1ccc(C(=O)Nc2c(C(N)=O)oc3ccccc23)cc1
AC50 [2]: 0.092 µM [falling, full curve]

CCN(CC(=O)Nc1c(F)cccc1F)C(=O)c1cc2ccccc2oc1=O
AC50 [2]: 7.31 µM [rising, partial curve]

Cc1cc2c(cc1C)CSC(c1c(O)ccc3ccccc13)SC2
AC50 [2]: 29.1 µM [rising, single point]

CCCn1c(=O)c2[nH]cnc2n(-c2ccccc2C)c1=O
AC50 [2]: 1.12 µM [rising, full curve, poor fit]

CCCCc1nccn1CCn1ccnc1CCCC
AC50 [2]: 3.26 µM [falling, partial curve, poor fit]

CCN(CC)c1nc2ccccc2nc1C(C#N)C(=O)NCCCOC (centres undefined)
AC50 [2]: 0.231 µM [falling, partial curve, poor fit]

Nn1c(SCc2ccccc2)nc2c(cnn2-c2ccccc2)c1=O
AC50 [2]: 2.82 µM [rising, partial curve, poor fit]

COc1cc(C(=O)Sc2ccc(C)cc2)cc(OC)c1OC
AC50 [2]: 2.82 µM [falling, partial curve, poor fit]

Cc1ccc(S(=O)(=O)N2CCN(Cc3cc(=O)n4ccccc4n3)CC2)cc1C
AC50 [2]: 0.58 µM [rising, full curve]

COc1ccc(-c2noc(CCCCC(=O)N3CCN(c4cc(C)ccc4C)CC3)n2)cc1
AC50 [2]: 29.1 µM [falling, single point]

O=C(Nc1ccc(S(=O)(=O)N2CCCC2)cc1)C1CCCCC1
AC50 [2]: 5.01 µM [rising, full curve]

CCOC(=O)C1=C(O)C(=O)N(c2ccc(S(N)(=O)=O)cc2)C1c1ccc([N+](=O)[O-])cc1 (centres undefined)
AC50 [2]: 0.708 µM [rising, full curve, poor fit]

COc1ccc(OC)c(/C=N/n2c(-c3n[nH]c4c3CCC4)n[nH]c2=S)c1
AC50 [2]: 3.55 µM [falling, single point]

O=c1c2ccccc2nc(COc2ccccc2)n1/N=C/c1c[nH]c2ccccc12
AC50 [2]: 11.6 µM [falling, partial curve]

CCC(C(=O)OCC(=O)Nc1ccc(C)c(S(=O)(=O)N2CCOCC2)c1)c1ccccc1 (centres undefined)
AC50 [2]: 0.58 µM [falling, full curve, poor fit]

Cc1ccc(NC(=O)COC(=O)c2cccc3c2C(=O)c2ccccc2C3=O)c(C)c1
AC50 [2]: 18.4 µM [rising, partial curve, poor fit]

CN(CC(=O)Nc1ccc2c(c1)OCCO2)Cc1nc2ccccc2c(=O)[nH]1
AC50 [1]: 23.1 µM [falling, partial curve, poor fit]

Cc1ccc(CSc2nnc(SCC(=O)N/N=C/c3ccccc3OCC(=O)O)s2)cc1
AC50 [2]: 8.91 µM [falling, partial curve]

CCOC(=O)C1CCCCN1S(=O)(=O)c1ccc2c(c1)CC(C)N2C(=O)C1CCC1 (centres undefined)
AC50 [2]: 4.47 µM [rising, single point]

Cc1cccc(Cc2c(C)nc3c(C(=O)NCc4ccco4)cnn3c2C)c1
AC50 [2]: 10 µM [falling, partial curve]

O=C1c2ccccc2C(=O)C12OC2c1cccc2ccccc12 (centres undefined)
AC50 [2]: 29.1 µM [rising, single point]
AC50 [1]: 25.9 µM [falling, single point]

CCOC(=O)c1cc2cc3ccccc3cc2[nH]1
AC50 [2]: 17.8 µM [falling, single point]

COC(=O)c1ccc(COc2ccccc2/C=N/Nc2cccc(C(=O)O)c2)cc1
AC50 [2]: 22.4 µM [falling, single point]

CSc1nc(N)nc(C(C)C)n1
AC50 [2]: 14.1 µM [rising, partial curve, poor fit]

O=[N+]([O-])c1ccc(Nc2nc(NCCO)nc(N3CCCC3)n2)cc1
AC50 [2]: 35.5 µM [falling, single point]

N#C/C(=C\c1ccc(O)c(O)c1)C(=O)Nc1ccccc1
AC50 [2]: 18.4 µM [falling, single point]

Cc1ccccc1NC(=O)COc1nsnc1N1CCOCC1
AC50 [2]: 7.08 µM [falling, partial curve]

O=C(Cc1c[nH]c2ccccc12)N1CCc2ccccc21
AC50 [2]: 1.46 µM [falling, partial curve, poor fit]

Brc1ccccc1OCCCCCN1CCOCC1
AC50 [2]: 2.51 µM [rising, partial curve, poor fit]

Cc1ccc(C)c(NC(=O)CSc2nnc(-c3ccncc3)o2)c1
AC50 [2]: 11.2 µM [falling, partial curve, poor fit]

COc1ccc(CCNc2nnc(Sc3nnnn3-c3ccccc3)s2)cc1OC
AC50 [2]: 14.6 µM [falling, partial curve]
AC50 [1]: 8.2 µM [falling, partial curve]

Cc1cc(C(=O)c2cnc(/N=C/N(C)C)s2)c(F)cc1Cl
AC50 [2]: 1.26 µM [falling, single point]

CC(C)CN(C(=O)c1ccco1)c1nc2ccccc2s1
AC50 [2]: 35.5 µM [rising, single point]

O=[N+]([O-])c1ccc(N2CCN(C(=S)c3cccc([N+](=O)[O-])c3)CC2)cc1
AC50 [2]: 12.6 µM [rising, single point]

CCn1c(SCC(=O)Nc2nccc(C)n2)nc2ccccc21
AC50 [2]: 35.5 µM [falling, single point]

Cc1cc(N2CCN(c3ccc(F)cc3)CC2)n2ncnc2n1
AC50 [2]: 15.8 µM [falling, single point]

Oc1ccc(-c2csc(-c3ccccc3)n2)cc1O
AC50 [2]: 2.51 µM [rising, partial curve]

Cc1ccccc1OCC(=O)Nc1sc2c(c1C#N)CCC2
AC50 [2]: 13 µM [rising, partial curve]

COc1ccc(CCCC(=O)O)c(C)c1
AC50 [2]: 3.16 µM [falling, partial curve, poor fit]

CN1C(=O)NC(c2ccccc2)(C(F)(F)F)S/C1=C(/C#N)c1nnc(N2CCOCC2)n1-c1ccccc1 (centres undefined)
AC50 [2]: 13 µM [falling, partial curve]
AC50 [1]: 20.6 µM [rising, partial curve, poor fit]

COc1ccc(CN2CCCCCC2)c(C)c1C
AC50 [2]: 29.1 µM [rising, single point]

O=c1oc2cc(OCc3ccc(F)cc3F)ccc2cc1-c1ccc2ccccc2n1
AC50 [2]: 29.1 µM [rising, partial curve, poor fit]

C/C(=N\Nc1ncc(Cl)cc1Cl)c1ccc(OC(F)F)cc1
AC50 [2]: 1.64 µM [rising, full curve, poor fit]
AC50 [1]: 29.1 µM [falling, single point]

CCc1cc2c(SCC(=O)Nc3ccc(NC(C)=O)cc3)ncnc2s1
AC50 [2]: 29.1 µM [rising, single point]
AC50 [1]: 23.1 µM [falling, partial curve, poor fit]

COc1ccccc1-c1cn[nH]c(=S)n1
AC50 [2]: 10.3 µM [falling, partial curve]

Cc1ccc2sc(N(CCCN(C)C)C(=O)c3ccc(S(=O)(=O)N(C)C4CCCCC4)cc3)nc2c1C
AC50 [2]: 29.1 µM [falling, single point]

Cc1ccccc1Nc1nc(N)nc(COC(=O)c2cccc(S(=O)(=O)N(C)C)c2)n1
AC50 [2]: 20.6 µM [rising, partial curve]
AC50 [1]: 16.4 µM [falling, partial curve, poor fit]

CN(C)CCCn1c(=O)n(Cc2ccccc2)c(=O)c2c3c(sc21)CCCCC3
AC50 [2]: 8.91 µM [falling, partial curve, poor fit]

COc1ccc(Nc2ccncc2[N+](=O)[O-])cc1
AC50 [2]: 2.82 µM [falling, full curve, poor fit]

O=C(Nc1ccc([N+](=O)[O-])cc1)C1CC12CCC2 (centres undefined)
AC50 [2]: 35.5 µM [falling, single point]

COC(=O)c1sccc1NC(=O)Nc1ccc(C)c(C)c1
AC50 [2]: 0.794 µM [falling, full curve]

Cc1ccnc(SCc2cc(=O)c(OC(=O)c3cc([N+](=O)[O-])ccc3Cl)co2)n1
AC50 [2]: 29.1 µM [rising, single point]

COc1ccc2oc(C(=O)NC3CCCCC3)c(C)c2c1
AC50 [2]: 12.6 µM [falling, partial curve]

CCc1ccc2oc(-c3cc(N)ccc3Cl)nc2c1
AC50 [2]: 16.4 µM [falling, partial curve, poor fit]
AC50 [1]: 16.4 µM [falling, partial curve, poor fit]

C=CCn1c(SCC(=O)NCCOC)nc2scc(-c3ccco3)c2c1=O
AC50 [2]: 3.55 µM [falling, single point]

O=C(CCc1ccccc1Cl)Nc1cccc(S(=O)(=O)N2CCCC2)c1
AC50 [2]: 31.6 µM [falling, single point]

COC/C=C/C1=CC2=CC(=O)C(C)(OC(=O)c3cnc4ccccc4n3)C(=O)C2=CN1C(CO)CO (centres undefined)
AC50 [2]: 12.6 µM [rising, partial curve, poor fit]

Cc1cc(C)c2c3c(sc2n1)C(=O)N(C)CC(=O)N3
AC50 [2]: 25.1 µM [rising, single point]

COC(=O)c1nn(-c2ccccc2)c(Sc2ccc(Cl)cc2)c1/C=N/O
AC50 [2]: 22.4 µM [falling, single point]

Cc1ccc(-c2nc(Nc3ccccc3)n[nH]2)cc1
AC50 [2]: 2.91 µM [falling, partial curve, poor fit]
